In EP0642343B1, “Acridine carboxamides for the treatment of cancer” (XENOVA LIMITED, priority 1992, dated 1993):

Tested on: panel of cell lines encompassing a number of tumour types
Test: NCI cell line panel, growth inhibition by protein staining
Assay type: cell-based
Conditions: standard deviation in log10 units
Experimental: Tumour cell lines were cultured in 96-well plates. Growth of NCI cell lines was assessed using sulpho-rhodamine B staining (Skehan P., et al., J. Natl. Cancer Inst. 1990, 82, 1107-1112), that of the leukaemia lines with (4,5-dimethylthiazole-2-yl)-2,5-diphenyltetrazolium (MTT) staining (Mosmann T., J. Immun. Methods 1983, 65, 55-63) and that of the primary human tumour material by ^3H-thymidine incorporation (Marshall E.S., et al., J. Natl. Cancer Inst. 1992, 84, 341-344). Primary tumour material was cultured in 96-well plates in which the wells were coated with agarose to inhibit selectively the growth of normal cells. (Marshall E.S., et al., J. Natl. Cancer Inst. 1992, 84, 341-344). Primary cultures were incubated at 37°C in sealed perspex boxes containing a humidified atmosphere of 5% CO2 and 5% O2 in nitrogen for 7 days. 5-Methyl-[^3H]-thymidine (20 Ci.mmol^-1; 0.04 µCi per well), thymidine and 5-fluorodeoxyuridine (each at final concentrations of 0.5 µM) were added in medium to cultures (20 µl per well) 24 h before terminating the cultures. Cells were aspirated on to glass fibre filters using a multiple automated sample harvester (LKB Wallac OY Beta Harvester). The filter discs were washed for 15 seconds with water, dried, and the amount of tritium retained quantified by liquid scintillation.
IC50 values were defined as in Paull K.D., et al., J. Natl. Cancer Inst. 1989, 81:1088-1092, where growth, as indicated by staining or thymidine incorporation, corresponded to 50% of that of the control cultures. […] Variances of DELTA values were expressed as standard deviations in log10 units. Comparison of DELTA values was made using Pearson correlation coefficients. Resistance factors were defined as the ratios of IC50 values between the resistant line and the parent line. Statistical evaluation was performed either with NCI programmes, with RS/1 software (BBN Research Systems, Cambridge, MA, USA), or with Sigmaplot (Jandel Scientific, San Rafael, CA, USA).

| Compound | variance of DELTA values |
| --- | --- |
| CN(C)CCNC(=O)c1cccc2cc3ccccc3nc12 [DACA, N-[2-(dimethylamino)ethyl]acridine-4-carboxamide] | 0.24 units |
| COc1cccc2c1C(=O)c1c(O)c3c(c(O)c1C2=O)C[C@@](O)(C(=O)CO)C[C@@H]3O[C@H]1C[C@H](N)[C@H](O)[C@H](C)O1 [doxorubicin] | 0.44 units |
| COc1cc([C@@H]2c3cc4c(cc3[C@@H](O[C@@H]3O[C@@H]5CO[C@@H](C)O[C@H]5[C@H](O)[C@H]3O)[C@H]3COC(=O)[C@H]23)OCO4)cc(OC)c1O [etoposide] | 0.55 units |
